Source: PMC13098282
A negative result means that nothing was seen under these conditions. Where a protein sequence is shown, tags need not be part of it. For some of these results: Construct, isoform or probe ends are uncertain for at least one entry. For some of these results: The comparison behind a weaker result is the experiment's own reference, which may not be listed here.

What was measured:
Assay in all cases: EMSA
[1] = target: T1, GylR (Mycobacterium smegmatis) (UniProt A0R727); conditions: 20 mM HEPES pH 7.6, 1 mM EDTA, 10 mM (NH4)2SO4, 1 mM DTT, 0.2% Tween 20, 30 mM KCl, 310 fmol DNA in 20 uL, 0/25/75 ng protein (Fig S7: 1 or 3 uM), 15 min, recombinant protein, residues 1-253, label: DIG (kit, stated as 5' end), probe letters rebuilt from the primers and the genome
T1 sequence (looked up): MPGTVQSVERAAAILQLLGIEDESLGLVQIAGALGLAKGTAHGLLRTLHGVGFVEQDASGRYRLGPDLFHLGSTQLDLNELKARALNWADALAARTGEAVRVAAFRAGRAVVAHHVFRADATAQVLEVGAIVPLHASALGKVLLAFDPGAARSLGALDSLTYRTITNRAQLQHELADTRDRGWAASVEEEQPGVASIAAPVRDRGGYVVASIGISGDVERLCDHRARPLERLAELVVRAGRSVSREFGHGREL

[2] = target: T2, MSMEG_2386 (Mycobacterium smegmatis) (UniProt A0QUY8); conditions: 20 mM HEPES pH 7.6, 1 mM EDTA, 10 mM (NH4)2SO4, 1 mM DTT, 0.2% Tween 20, 30 mM KCl; 310 fmol DNA in 20 uL, 0/25/75 ng protein (Fig S7: 1 or 3 uM); 15 min; recombinant protein; label: DIG (kit, stated as 5' end); probe letters rebuilt from the primers and the genome
T2 sequence (looked up, limits assumed): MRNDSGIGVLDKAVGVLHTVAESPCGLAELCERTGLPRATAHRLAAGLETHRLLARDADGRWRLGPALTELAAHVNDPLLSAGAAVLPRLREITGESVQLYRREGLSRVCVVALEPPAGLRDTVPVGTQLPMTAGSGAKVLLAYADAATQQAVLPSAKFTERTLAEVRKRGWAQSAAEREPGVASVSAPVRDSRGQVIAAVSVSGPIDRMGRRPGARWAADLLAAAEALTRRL

[3] = target: T3, MSMEG_2600 (Mycobacterium smegmatis) (UniProt A0QVJ9); conditions: 20 mM HEPES pH 7.6, 1 mM EDTA, 10 mM (NH4)2SO4, 1 mM DTT, 0.2% Tween 20, 30 mM KCl; 310 fmol DNA in 20 uL, 0/25/75 ng protein (Fig S7: 1 or 3 uM); 15 min; recombinant protein; label: DIG (kit, stated as 5' end); probe letters rebuilt from the primers and the genome
T3 sequence (looked up, limits assumed): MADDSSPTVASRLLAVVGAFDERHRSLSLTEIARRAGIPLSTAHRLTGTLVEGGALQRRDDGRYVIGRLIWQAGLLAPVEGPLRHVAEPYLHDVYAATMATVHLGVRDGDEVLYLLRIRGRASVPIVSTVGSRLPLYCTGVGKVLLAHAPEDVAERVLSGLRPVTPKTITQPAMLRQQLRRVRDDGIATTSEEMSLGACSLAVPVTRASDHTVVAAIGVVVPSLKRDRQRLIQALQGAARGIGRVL

[4] = target: T4, Crp1 (Mycobacterium smegmatis) (UniProt A0QPW2); conditions: 20 mM HEPES pH 7.6, 1 mM EDTA, 10 mM (NH4)2SO4, 1 mM DTT, 0.2% Tween 20, 30 mM KCl, 310 fmol DNA in 20 uL, 0/25/75 ng protein (Fig S7: 1 or 3 uM), 15 min, recombinant protein, residues 1-224, label: DIG (kit, stated as 5' end), probe letters rebuilt from the primers and the genome
T4 sequence (looked up): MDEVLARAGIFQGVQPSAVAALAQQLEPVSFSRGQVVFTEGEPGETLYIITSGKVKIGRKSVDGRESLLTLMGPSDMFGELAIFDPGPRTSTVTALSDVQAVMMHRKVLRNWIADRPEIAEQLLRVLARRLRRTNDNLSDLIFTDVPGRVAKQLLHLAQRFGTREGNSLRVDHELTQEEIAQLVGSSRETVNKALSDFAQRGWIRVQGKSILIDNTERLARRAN

[5] = target: T5, MSMEG_0916 (Mycobacterium smegmatis) (UniProt A0QQY1); conditions: 20 mM HEPES pH 7.6, 1 mM EDTA, 10 mM (NH4)2SO4, 1 mM DTT, 0.2% Tween 20, 30 mM KCl; 310 fmol DNA in 20 uL, 0/25/75 ng protein (Fig S7: 1 or 3 uM); 15 min; recombinant protein; label: DIG (kit, stated as 5' end); probe letters rebuilt from the primers and the genome
T5 sequence (looked up, limits assumed): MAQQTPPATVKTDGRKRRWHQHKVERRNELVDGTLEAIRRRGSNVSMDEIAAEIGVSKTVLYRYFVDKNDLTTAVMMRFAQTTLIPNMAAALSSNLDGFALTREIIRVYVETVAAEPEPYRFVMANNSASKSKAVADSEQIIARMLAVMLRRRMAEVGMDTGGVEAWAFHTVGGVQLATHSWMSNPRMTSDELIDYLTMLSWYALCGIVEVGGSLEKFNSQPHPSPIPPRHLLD

[6] = target: T6, MSMEG_3822 (Mycobacterium smegmatis) (UniProt A0QYX6); conditions: 20 mM HEPES pH 7.6, 1 mM EDTA, 10 mM (NH4)2SO4, 1 mM DTT, 0.2% Tween 20, 30 mM KCl; 310 fmol DNA in 20 uL, 0/25/75 ng protein (Fig S7: 1 or 3 uM); 15 min; recombinant protein; label: DIG (kit, stated as 5' end); probe letters rebuilt from the primers and the genome
T6 sequence (looked up, limits assumed): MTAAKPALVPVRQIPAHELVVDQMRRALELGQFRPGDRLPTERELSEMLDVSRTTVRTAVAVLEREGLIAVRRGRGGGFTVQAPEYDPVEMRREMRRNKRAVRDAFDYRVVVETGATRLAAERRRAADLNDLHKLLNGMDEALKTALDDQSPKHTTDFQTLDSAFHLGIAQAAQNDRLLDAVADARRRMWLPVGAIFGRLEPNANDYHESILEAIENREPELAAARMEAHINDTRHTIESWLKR

| Sequence | binding result ([1]; 50 mM glycerol-3-phosphate) | binding result ([1]; no G3P) | binding result [2] | binding result [3] | binding result ([4]; 50 mM cAMP) | binding result ([4]; no cAMP) | binding result [5] | binding result [6] |
| --- | --- | --- | --- | --- | --- | --- | --- | --- |
| CACCCCGAACAGGATGAGGATGCCGGCGAACTCGGCGCAGAGTTCTCCGACGAGTGTTCGTCGTGACATGTTGGTCTCCTTGGCTCTTCGAACCGCATGTGTTGTGCGTCATACGAGGCGTGCGTTGTGAACCTAGAAGCCAGAGGTCGGCCGGGCATCACCCGTCGTTCGGCATCGCCGAACACGGCCCCGGTCGACAATGCCGACCCTCGGGGTCGACATGGTCGAACGATTTGGTGATCCTGAAACTTGTGCCAGGCACTGTGCAGTCCGTGGAACGGGCCGCGGCGATACTGCAGCTAC (double strand) [PglpFKD (glpFKD promoter)] | binds more weakly | binds |  |  |  |  |  |  |
| GACCGGCGAGATGTCTGGAAGTTCGTCGATCGCATTCTGACCGGCACTGTGACCGTTGCTGGCCATTCCATCCTCCCGCTCGGAGTTTCGGCGACGCGGCAAACATATCCTCGCCTATGCGCGGATGCCTATCGCTTTCGCGCAATTCCTGTCCGGATTGCGCAAAGATAGGTGCTCTCATGCGCGTCTGACGATCAGGAGGGTTGCGGTGCGGGACCGAAATCCGTTATCGCTGACCAAAGTTAGGCTTTCCTTAGCTCGCGTATCAGGCCGGGCGTTGCTGGGGGTTCCCGGATGTCACGGCTGACCCGGCTCGGGTTCATCGACATCCGCCGCACCAGCGATCCCGTGCGGCGAAAGGTGCGCAGCCGCGGCGTCCCGCCCGCGCTGGCCGATCACGAGATCTTCTACACCGAGGACGTCCGCGAGGCCGCGCGTCTGGTCG (double strand) [Phuc (huc promoter)] | no binding | no binding | no binding | no binding | no binding | no binding | no binding | no binding |
